These are yes or no findings as the source states them, for the method shown. In cells and extracts the contact can be indirect. Where a sequence is shown, tags or fusion partners need not be part of it.
Columns and labels:
[1] = molecular target: T1, flag-tagged IL-32γ (human) (UniProt P24001); test: co-IP; MRC-5 cells overexpressing flag-tagged IL-32γ, stimulated with TGF-β and harvested at 24 h; lysate on protein G Sepharose beads coated with anti-flag antibody; immunoblot with anti-FAK antibody
T1 sequence: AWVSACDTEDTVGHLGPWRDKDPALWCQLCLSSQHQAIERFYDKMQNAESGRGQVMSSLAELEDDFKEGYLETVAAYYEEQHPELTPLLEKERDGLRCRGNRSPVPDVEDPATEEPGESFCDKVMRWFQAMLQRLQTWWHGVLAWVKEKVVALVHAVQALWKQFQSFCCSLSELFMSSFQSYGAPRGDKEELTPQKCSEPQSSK

Amino acid sequences for entries named in this document (tags omitted). Residues count along the entry.
UniProt Q05397: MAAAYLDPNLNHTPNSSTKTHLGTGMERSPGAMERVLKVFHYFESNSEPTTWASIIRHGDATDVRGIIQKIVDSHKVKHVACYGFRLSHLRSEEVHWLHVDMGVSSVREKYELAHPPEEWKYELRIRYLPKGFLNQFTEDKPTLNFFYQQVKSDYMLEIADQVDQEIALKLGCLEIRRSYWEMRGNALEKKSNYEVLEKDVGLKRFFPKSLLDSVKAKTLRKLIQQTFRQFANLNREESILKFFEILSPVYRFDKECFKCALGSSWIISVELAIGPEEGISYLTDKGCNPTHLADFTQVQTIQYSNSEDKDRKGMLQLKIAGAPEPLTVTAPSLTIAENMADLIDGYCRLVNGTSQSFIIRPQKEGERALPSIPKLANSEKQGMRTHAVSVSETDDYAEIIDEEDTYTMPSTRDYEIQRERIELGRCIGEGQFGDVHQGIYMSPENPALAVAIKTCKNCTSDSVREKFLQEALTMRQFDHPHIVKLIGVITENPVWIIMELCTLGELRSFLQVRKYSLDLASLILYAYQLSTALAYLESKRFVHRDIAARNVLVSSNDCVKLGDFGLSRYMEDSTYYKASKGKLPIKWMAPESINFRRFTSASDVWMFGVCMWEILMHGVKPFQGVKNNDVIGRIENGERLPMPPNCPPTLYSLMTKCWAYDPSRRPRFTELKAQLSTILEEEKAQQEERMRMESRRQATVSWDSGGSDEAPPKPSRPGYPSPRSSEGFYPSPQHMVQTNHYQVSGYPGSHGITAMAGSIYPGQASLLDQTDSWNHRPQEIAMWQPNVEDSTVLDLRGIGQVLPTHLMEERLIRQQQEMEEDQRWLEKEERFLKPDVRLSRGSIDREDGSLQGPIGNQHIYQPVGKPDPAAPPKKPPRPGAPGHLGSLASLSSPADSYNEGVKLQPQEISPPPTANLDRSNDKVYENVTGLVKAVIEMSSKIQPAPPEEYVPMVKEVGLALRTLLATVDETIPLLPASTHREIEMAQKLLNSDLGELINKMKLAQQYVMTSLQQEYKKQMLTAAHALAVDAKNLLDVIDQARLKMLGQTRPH
UniProt P05106, residues 27-788: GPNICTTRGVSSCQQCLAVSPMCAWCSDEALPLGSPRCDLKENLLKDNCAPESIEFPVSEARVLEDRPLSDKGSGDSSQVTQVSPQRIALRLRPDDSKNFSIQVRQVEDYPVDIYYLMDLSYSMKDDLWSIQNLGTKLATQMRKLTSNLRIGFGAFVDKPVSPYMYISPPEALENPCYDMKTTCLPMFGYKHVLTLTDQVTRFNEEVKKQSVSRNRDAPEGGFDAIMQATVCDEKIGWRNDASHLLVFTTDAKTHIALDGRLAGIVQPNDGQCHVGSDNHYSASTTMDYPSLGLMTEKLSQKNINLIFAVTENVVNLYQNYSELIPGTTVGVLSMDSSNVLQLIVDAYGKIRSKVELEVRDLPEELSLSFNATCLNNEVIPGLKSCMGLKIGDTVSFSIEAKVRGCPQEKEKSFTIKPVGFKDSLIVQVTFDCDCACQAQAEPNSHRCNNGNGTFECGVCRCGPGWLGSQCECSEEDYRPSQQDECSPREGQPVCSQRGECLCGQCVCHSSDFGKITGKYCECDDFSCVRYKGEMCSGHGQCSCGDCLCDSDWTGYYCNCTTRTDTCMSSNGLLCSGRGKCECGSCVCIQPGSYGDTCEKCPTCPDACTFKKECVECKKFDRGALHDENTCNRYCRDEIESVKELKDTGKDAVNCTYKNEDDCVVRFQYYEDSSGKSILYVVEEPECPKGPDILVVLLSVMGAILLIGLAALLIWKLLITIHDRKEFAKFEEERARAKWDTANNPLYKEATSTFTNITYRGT
UniProt P49023: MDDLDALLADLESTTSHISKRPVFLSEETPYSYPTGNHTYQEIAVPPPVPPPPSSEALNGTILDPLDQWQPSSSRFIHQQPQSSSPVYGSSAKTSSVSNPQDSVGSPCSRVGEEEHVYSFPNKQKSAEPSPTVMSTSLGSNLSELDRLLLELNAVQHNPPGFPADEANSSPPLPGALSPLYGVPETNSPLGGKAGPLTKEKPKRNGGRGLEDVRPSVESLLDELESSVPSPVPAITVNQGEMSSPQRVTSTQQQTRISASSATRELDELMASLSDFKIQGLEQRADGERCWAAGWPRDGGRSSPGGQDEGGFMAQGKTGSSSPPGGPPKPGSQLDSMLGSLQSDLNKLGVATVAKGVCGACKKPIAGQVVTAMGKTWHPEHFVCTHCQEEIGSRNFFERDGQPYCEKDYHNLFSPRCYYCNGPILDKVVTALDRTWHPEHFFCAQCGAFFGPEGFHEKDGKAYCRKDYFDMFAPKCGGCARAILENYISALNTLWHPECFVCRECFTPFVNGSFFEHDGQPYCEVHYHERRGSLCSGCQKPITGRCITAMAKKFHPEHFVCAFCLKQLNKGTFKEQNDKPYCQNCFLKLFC

[2] = molecular target: T2, His-tagged recombinant IL-32γ (human) (UniProt P24001); test: pull-down; His-tagged IL-32γ on Ni-NTA agarose beads, incubated with the lysate supernatant of MRC-5 cells stimulated with TGF-β for 24 h; flow-through, wash and elution fractions immunoblotted; only the target purified
T2 sequence: T1 sequence

binding [1] | binding [2] | Substance
no binding |  | focal adhesion kinase (from UniProt Q05397 1-1052) (enzyme)
 | no binding | integrin β3 (from UniProt P05106 27-788) (receptor)
 | no binding | paxillin (from UniProt P49023 1-591)

Reference: publication PMC6158920
